PubChem BioAssay AID504764 | Drosophila RNAi Screening Center – 2011

Assay: 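Genes whose knock-down alters Notch-dependent transcription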 (primary screen)
Cell system: Drosophila Kc167 cells
Reagents: long dsRNA against Drosophila genes
Timing: about 5 days (4 days dsRNA, then 24 h after transfection)
Challenge: transfection of constitutively active membrane-tethered Notch lacking the extracellular domain, read 24 h later
Measured: 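Light from a Notch-responsive E(spl)m3 luciferase reporter under active Notch, with control-promoter and no-Notch reporter wells to normalise; raw counts from paired wells a and b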
Scale: induced reporter light, run 1, well a and induced reporter light, run 1, well b: higher = more light from the Notch target reporter with active Notch; control promoter light, run 1, well a and control promoter light, run 1, well b: higher = more light from the viral control promoter (cell number, transfection, viability); uninduced reporter light, run 1, well a: higher = more light from the Notch target reporter without active Notch
Call rule: 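Wells with low control signal or poorly matching duplicates excluded; duplicates averaged; per source plate, z beyond ±2 for induced/control log2 ratio or beyond ±1.8 for induced/uninduced marks a hit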
Meaning of the calls: active = modifier hit (raised or lowered Notch signal); inactive = not a hit
In all, the deposit lists about 22,000 reagents; below is an unselected part of those that have a named target and a result. Of all reagents, 403 (1.9%) got an active call. 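Unnormalised raw counts per well; ratio z-scores behind the hit calls and whether each hit raises or lowers signal are not deposited.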 Unmarked entries are inactive. The record does not give: the amount of reagent.

| target gene | dsRNA | induced reporter light, run 1, well a | induced reporter light, run 1, well b | control promoter light, run 1, well a | control promoter light, run 1, well b | uninduced reporter light, run 1, well a |
| --- | --- | --- | --- | --- | --- | --- |
| CG43394 | DRSC01013 | 1.54e5 | 1.63e5 | 1.39e5 | 1.37e5 | 10292 |
| TrpA1 (Transient receptor potential cation channel A1) | DRSC10544 | 1.61e5 | 1.45e5 | 1.68e5 | 2.05e5 | 13880 |
| Atg18a (Autophagy-related 18a) | DRSC10943 | 1.26e5 | 1.47e5 | 93250 | 56310 | 9035 |
| Obp22a (Odorant-binding protein 22a) | DRSC00088 | 95135 | 71610 | 1.24e5 | 1.29e5 | 7335 |
| Cpsf73 (Cleavage and polyadenylation specificity factor 73) | DRSC16291 | 1.29e5 (active) | 1.10e5 | 85430 | 83320 | 7670 |
| CG4293 | DRSC18557 | 1.43e5 | 1.59e5 | 1.89e5 | 2.53e5 | 11488 |
| wun (wunen) | DRSC07719 | 1.99e5 | 2.15e5 | 1.64e5 | 1.27e5 | 17110 |
| CG42493 | DRSC05309 | 2.02e5 | 2.41e5 | 2.82e5 | 2.22e5 | 12810 |
| CG4610 | DRSC04477 | 1.71e5 | 2.03e5 | 1.67e5 | 1.79e5 | 13260 |
| CG13108 | DRSC02206 | 1.04e5 | 1.19e5 | 57270 | 85340 | 15765 |
| CG8043 | DRSC16368 | 87245 | 77215 | 59820 | 61440 | 3895 |
| CG10154 | DRSC09707 | 1.28e5 | 1.28e5 | 1.76e5 | 1.24e5 | 8375 |
| mud (mushroom body defect) | DRSC19019 | 1.03e5 | 90830 | 1.01e5 | 1.04e5 | 7982 |
| CG31464 | DRSC14345 | 1.30e5 | 1.37e5 | 95900 | 74125 | 10388 |
| dnr1 (defense repressor 1) | DRSC03948 | 1.14e5 | 89335 | 1.01e5 | 1.13e5 | 10320 |
| dnr1 (defense repressor 1) | DRSC04122 | 1.32e5 | 1.27e5 | 1.09e5 | 93590 | 9990 |
| CG10979 | DRSC12153 | 1.20e5 | 1.17e5 | 1.09e5 | 97805 | 8590 |
| Strn-Mlck (Stretchin-Mlck) | DRSC05032 | 1.26e5 | 1.15e5 | 2.68e5 | 2.67e5 | 9680 |
| Strn-Mlck (Stretchin-Mlck) | DRSC05598 | 1.50e5 | 1.38e5 | 1.82e5 | 1.78e5 | 11260 |
| Strn-Mlck (Stretchin-Mlck) | DRSC07471 | 1.88e5 | 1.15e5 | 1.46e5 | 1.54e5 | 10775 |
| Pdcd4 (Programmed cell death 4) | DRSC19360 | 79710 | 1.04e5 | 97385 | 1.14e5 | 15330 |
| CG12517 | DRSC02173 | 1.07e5 | 1.24e5 | 73310 | 1.07e5 | 15805 |
| CG7341 | DRSC10818 | 1.29e5 | 1.15e5 | 66640 | 75725 | 8520 |
| CG33543 | DRSC00384 | 1.25e5 | 1.21e5 | 98100 | 96570 | 10160 |
| CG33543 | DRSC00385 | 1.15e5 | 1.11e5 | 97830 | 68390 | 10430 |
| CG12241 | DRSC14481 | 1.19e5 | 94115 | 74560 | 79695 | 7870 |
| fs(2)ltoPP43 (female sterile (2) ltoPP43) | DRSC02067 | 53905 | 38810 | 37530 | 44985 | 3180 |
| Zmynd10 (Zinc finger MYND-type containing 10) | DRSC09826 | 1.31e5 | 1.30e5 | 1.88e5 | 1.55e5 | 7665 |
| ana (anachronism) | DRSC07579 | 70625 | 72090 | 37125 | 31725 | 7260 |
| jar (jaguar) | DRSC16974 | 1.98e5 | 1.99e5 | 2.22e5 | 2.17e5 | 16492 |
| Ibf2 (Insulator binding factor 2) | DRSC16551 | 88615 | 1.27e5 | 1.02e5 | 1.22e5 | 7260 |
| Gr32a (Gustatory receptor 32a) | DRSC02400 | 1.10e5 | 1.34e5 | 73215 | 96725 | 16345 |
| Muc91C (Mucin 91C) | DRSC16297 | 1.97e5 | 1.68e5 | 1.81e5 | 1.99e5 | 12155 |
| CG3520 | DRSC04383 | 1.60e5 | 1.55e5 | 1.59e5 | 1.51e5 | 10715 |

Ordered by “uninduced reporter light, run 1, well a” (descending): some entries from above.
| target gene | dsRNA | induced reporter light, run 1, well a | induced reporter light, run 1, well b | control promoter light, run 1, well a | control promoter light, run 1, well b | uninduced reporter light, run 1, well a |
| --- | --- | --- | --- | --- | --- | --- |
| TrpA1 (Transient receptor potential cation channel A1) | DRSC10544 | 1.61e5 | 1.45e5 | 1.68e5 | 2.05e5 | 13880 |
| Atg18a (Autophagy-related 18a) | DRSC10943 | 1.26e5 | 1.47e5 | 93250 | 56310 | 9035 |
